Data as given in the supplement of paper PMC12889115.
The list shows a part of the results. Values are raw readings; no control value is given beside them.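 In the initial screen, polymyxin B was used at a concentration that permeabilizes Salmonella's outer membrane but not its inner membrane. Maximum growth was set by DMSO wells with or without polymyxin B. Since plates varied, data were ranked per plate, and compounds giving the lowest OD600 advanced as hits.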

Test system: Salmonella enterica serovar Typhimurium SL1344
Assay: bacterial growth OD600 after 18 h with compound and polymyxin B; higher = more bacterial growth (less inhibition)
Settings: 50 µM, Mueller-Hinton broth

Structure (SMILES): CC(C)CCn1cc(C(=O)NC2CCCC2)c(=O)c(C(=O)N(C)CCc2ccccn2)c1
- bacterial growth OD600 (polymyxin B 0.75 µg/mL): 0.805

Structure (SMILES): COCCCNc1nc2nonc2nc1N(C)C1CC(C)(C)NC(C)(C)C1
- bacterial growth OD600 (polymyxin B 1 µg/mL): 0.914

Structure (SMILES): COc1cc(-c2nc(CN3C[C@@H]4C[C@H](C3)c3cccc(=O)n3C4)c(C)o2)cc2c1OCO2
- bacterial growth OD600 (polymyxin B 1 µg/mL): 0.792

Structure (SMILES): O=C(c1cccc(Cl)c1)C1CCCN(C2CCCC2)C1 (stereo unspecified)
- bacterial growth OD600 (polymyxin B 0.75 µg/mL): 0.857

Structure (SMILES): O=C(c1cccc2ccccc12)C1CCCN(Cc2cc[nH]n2)C1 (stereo unspecified)
- bacterial growth OD600 (polymyxin B 1 µg/mL): 0.776

Structure (SMILES): Cc1ccc(C(=O)Nc2ccc(N3CCC(NC(C)Cc4cccnc4)CC3)cc2)c(C)c1 (stereo unspecified)
- bacterial growth OD600 (polymyxin B 0.75 µg/mL): 0.818

Structure (SMILES): Cc1ccc(C(C)Nc2ccc(-c3nc(C4CC4)no3)cn2)cn1 (stereo unspecified)
- bacterial growth OD600 (polymyxin B 1 µg/mL): 1.05

Structure (SMILES): COc1ccc(Cl)cc1C(=O)C1CCCN(Cc2cccc(C)n2)C1 (stereo unspecified)
- bacterial growth OD600 (polymyxin B 1 µg/mL): 0.61

Structure (SMILES): COc1c(C)cc(C(=O)C2CCCN(Cc3cn(C)nc3C)C2)cc1C (stereo unspecified)
- bacterial growth OD600 (polymyxin B 1 µg/mL): 0.884

Structure (SMILES): O=C(c1ccc(Cl)cc1)C1CCCN(Cc2cccc3c2OCO3)C1 (stereo unspecified)
- bacterial growth OD600 (polymyxin B 1 µg/mL): 0.329

Structure (SMILES): COc1ccc(C(=O)C2CCCN(Cc3cccc(F)c3)C2)cc1OC (stereo unspecified)
- bacterial growth OD600 (polymyxin B 1 µg/mL): 0.817

Structure (SMILES): O=C(NCc1ccc(F)c(F)c1)c1cn(C2CCCCC2)nn1
- bacterial growth OD600 (polymyxin B 1 µg/mL): 0.532

Structure (SMILES): CC(Cc1cnccn1)NCc1c(C(=O)N2CCCCCCC2)nc2ccc(Cl)cn12 (stereo unspecified)
- bacterial growth OD600 (polymyxin B 0.75 µg/mL): 0.66

Structure (SMILES): COc1ccc(Cl)cc1C(=O)C1CCCN(Cc2cnc(SC)nc2)C1 (stereo unspecified)
- bacterial growth OD600 (polymyxin B 1 µg/mL): 0.056

Structure (SMILES): COc1ccc(OC)c(CC(=O)N(C)C2CCCN(C3Cc4ccccc4C3)C2)c1 (stereo unspecified)
- bacterial growth OD600 (polymyxin B 1 µg/mL): 0.022

Structure (SMILES): COc1cc(C)c(-c2nc(CN3C[C@@H]4C[C@H](C3)c3cccc(=O)n3C4)c(C)o2)cc1C
- bacterial growth OD600 (polymyxin B 1 µg/mL): 0.902

Structure (SMILES): O=C1O[C@@H]2CN(Cc3nccs3)C[C@@H]2N1CCc1ccccn1
- bacterial growth OD600 (polymyxin B 0.75 µg/mL): 0.878

Structure (SMILES): O=C(NCc1ccccc1OC(F)(F)F)c1cn(C2CCCCC2)nn1
- bacterial growth OD600 (polymyxin B 1 µg/mL): 0.839

Structure (SMILES): Cc1cc(Cl)ccc1C(=O)C1CCCN(Cc2cccnc2)C1 (stereo unspecified)
- bacterial growth OD600 (polymyxin B 1 µg/mL): 0.786

Structure (SMILES): O=C(c1cccs1)C1CCCN(Cc2nc(-c3ccccn3)no2)C1 (stereo unspecified)
- bacterial growth OD600 (polymyxin B 1 µg/mL): 0.953

Structure (SMILES): O=C(c1cn(C2CCCCC2)nn1)N(Cc1ccccc1)CC1CCC1
- bacterial growth OD600 (polymyxin B 1 µg/mL): 0.024
